Here are results for one substance from paper PMC11414393.

Chains of the proteins cited; added tags and fusions are not shown.
UniProt P10244: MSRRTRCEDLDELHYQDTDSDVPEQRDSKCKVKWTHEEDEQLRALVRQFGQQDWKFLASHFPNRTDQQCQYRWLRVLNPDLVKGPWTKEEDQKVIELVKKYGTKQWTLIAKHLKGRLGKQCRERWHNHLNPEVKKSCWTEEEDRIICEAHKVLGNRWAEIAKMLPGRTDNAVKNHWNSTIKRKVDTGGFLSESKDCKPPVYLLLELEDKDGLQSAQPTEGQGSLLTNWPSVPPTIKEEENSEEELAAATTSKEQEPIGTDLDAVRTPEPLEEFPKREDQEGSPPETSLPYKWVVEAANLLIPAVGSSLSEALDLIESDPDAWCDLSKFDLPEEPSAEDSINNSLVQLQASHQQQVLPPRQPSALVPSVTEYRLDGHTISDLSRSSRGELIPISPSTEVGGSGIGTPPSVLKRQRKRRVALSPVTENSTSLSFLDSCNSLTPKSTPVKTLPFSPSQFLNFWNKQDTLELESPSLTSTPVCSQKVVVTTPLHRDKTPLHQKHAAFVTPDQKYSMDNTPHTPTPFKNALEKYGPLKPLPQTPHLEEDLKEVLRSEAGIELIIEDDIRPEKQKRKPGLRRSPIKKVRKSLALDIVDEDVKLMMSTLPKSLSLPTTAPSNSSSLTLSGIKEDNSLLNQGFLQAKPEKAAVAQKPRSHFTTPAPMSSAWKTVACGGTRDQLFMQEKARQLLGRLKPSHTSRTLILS

Results are given in words; binding and its absence hold for the method and conditions named. In cells and extracts the contact can be indirect. Some entries that bind do so weakly or less than the wild type. Sequences can lack the tags named with a protein.

The target in this experiment is T1, Flag-NFYB (UniProt P25208).
T1 sequence: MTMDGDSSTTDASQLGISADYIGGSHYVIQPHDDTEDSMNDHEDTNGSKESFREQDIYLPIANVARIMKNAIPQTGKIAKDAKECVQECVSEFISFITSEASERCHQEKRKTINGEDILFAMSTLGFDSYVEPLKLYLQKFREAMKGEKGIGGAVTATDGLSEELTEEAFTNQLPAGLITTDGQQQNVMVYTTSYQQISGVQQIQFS
In words: co-IP; 293T cells co-transfected with Flag-NFYB and B-Myb constructs for 48 h; precleared whole cell lysates incubated with anti-Flag antibody or normal rabbit IgG overnight at 4 °C, captured on Protein A/G Magnetic Beads, immunoblotting. In general terms: Immunoblotting shows a protein as a band on a membrane.

Consider “B-Myb (MYB proto-oncogene like 2) (from UniProt P10244 1-700)”, for which the binding entry is reported as “binds”.
